Results from paper PMC8989681, “Functional and structural deficiencies of Gemin5 variants associated with neurological disorders” (Life Science Alliance, 2022).
No constants are given. Whether binding was seen depends on the method and setting. Binding seen in cells or lysates may run through a third protein. Here binding means that the protein was enriched with, or labelled near, the bait; the list need not be complete.

Target: G5_(845-1508)-WT-TAP (human) (UniProt Q8TEQ6)
Assay: affinity purification with mass spectrometry; G5_(845-1508)-TAP baits expressed in HEK293; TAP purification, in-gel trypsin digestion, LC-MS/MS, PEAKS; two biological replicates; at least two distinct peptides

- binding: binds
B1: endogenous Gemin5 protein (natural protein, human (endogenous in HEK293), UniProt Q8TEQ6 1-1508, looked up)
chain: MGQEPRTLPPSPNWYCARCSDAVPGGLFGFAARTSVFLVRVGPGAGESPGTPPFRVIGELVGHTERVSGFTFSHHPGQYNLCATSSDDGTVKIWDVETKTVVTEHALHQHTISTLHWSPRVKDLIVSGDEKGVVFCYWFNRNDSQHLFIEPRTIFCLTCSPHHEDLVAIGYKDGIVVIIDISKKGEVIHRLRGHDDEIHSIAWCPLPGEDCLSINQEETSEEAEITNGNAVAQAPVTKGCYLATGSKDQTIRIWSCSRGRGVMILKLPFLKRRGGGIDPTVKERLWLTLHWPSNQPTQLVSSCFGGELLQWDLTQSWRRKYTLFSASSEGQNHSRIVFNLCPLQTEDDKQLLLSTSMDRDVKCWDIATLECSWTLPSLGGFAYSLAFSSVDIGSLAIGVGDGMIRVWNTLSIKNNYDVKNFWQGVKSKVTALCWHPTKEGCLAFGTDDGKVGLYDTYSNKPPQISSTYHKKTVYTLAWGPPVPPMSLGGEGDRPSLALYSCGGEGIVLQHNPWKLSGEAFDINKLIRDTNSIKYKLPVHTEISWKADGKIMALGNEDGSIEIFQIPNLKLICTIQQHHKLVNTISWHHEHGSQPELSYLMASGSNNAVIYVHNLKTVIESSPESPVTITEPYRTLSGHTAKITSVAWSPHHDGRLVSASYDGTAQVWDALREEPLCNFRGHRGRLLCVAWSPLDPDCIYSGADDFCVHKWLTSMQDHSRPPQGKKSIELEKKRLSQPKAKPKKKKKPTLRTPVKLESIDGNEEESMKENSGPVENGVSDQEGEEQAREPELPCGLAPAVSREPVICTPVSSGFEKSKVTINNKVILLKKEPPKEKPETLIKKRKARSLLPLSTSLDHRSKEELHQDCLVLATAKHSRELNEDVSADVEERFHLGLFTDRATLYRMIDIEGKGHLENGHPELFHQLMLWKGDLKGVLQTAAERGELTDNLVAMAPAAGYHVWLWAVEAFAKQLCFQDQYVKAASHLLSIHKVYEAVELLKSNHFYREAIAIAKARLRPEDPVLKDLYLSWGTVLERDGHYAVAAKCYLGATCAYDAAKVLAKKGDAASLRTAAELAAIVGEDELSASLALRCAQELLLANNWVGAQEALQLHESLQGQRLVFCLLELLSRHLEEKQLSEGKSSSSYHTWNTGTEGPFVERVTAVWKSIFSLDTPEQYQEAFQKLQNIKYPSATNNTPAKQLLLHICHDLTLAVLSQQMASWDEAVQALLRAVVRSYDSGSFTIMQEVYSAFLPDGCDHLRDKLGDHQSPATPAFKSLEAFFLYGRLYEFWWSLSRPCPNSSVWVRAGHRTLSVEPSQQLDTASTEETDPETSQPEPNRPSELDLRLTEEGERMLSTFKELFSEKHASLQNSQRTVAEVQETLAEMIRQHQKSQLCKSTANGPDKNEPEVEAEQPLCSSQSQCKEEKNEPLSLPELTKRLTEANQRMAKFPESIKAWPFPDVLECCLVLLLIRSHFPGCLAQEMQQQAQELLQKYGNTKTYRRHCQTFCM
notes: Gemin5, human, full-length endogenous protein of HEK293 cells; also called full-length Gemin5; source: endogenous, HEK293 soluble cell extract
